Laboratory results: PubChem BioAssay AID1259279 (Sanger Institute, 2017)

Screen: 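Find kinases whose loss works with colorectal cancer drugs to kill cells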 (primary screen)
Cell system: LS180 human colorectal cancer cells
Reagents: siRNA pool against human genes
Conditions: anchor drug BYL719 at 1 µM, cetuximab at 5 µg/ml or trametinib at 10 nM, or DMSO vehicle only
Read-out: 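Viability as a fraction of non-targeting control and as a replicate-averaged robust z-score, with separate synergy scores for BYL719, cetuximab and trametinib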
Scale: viability z-score, no drug: higher = more viable cells after knock-down; viability, no drug: higher = more viable cells; synergy score with BYL719 and synergy score with cetuximab and synergy score with trametinib: higher = stronger synthetic lethal synergy with drug
Active means: 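a knock-down is called active, meaning essential, if its viability z-score in vehicle alone falls below -3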
Meaning of the calls: active = essential (knock-down alone cuts viability); inactive = no change without drug
Here is one part, drawn at random, of 794 reagents tested. 11 of all reagents (1.4%) were called active. 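Calls reflect knock-down alone in the vehicle arm, not drug synergy.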 Viability is capped at 1. Not stated in the record: the amount of reagent, the time to read-out.

Gene	viability z-score, no drug	viability, no drug (fraction)	synergy score with BYL719	synergy score with cetuximab	synergy score with trametinib	activity call
PI4K2A	0.749	0.988	-0.0242	-0.0225	-0.155	inactive
PRKCG	0.3	0.939	-0.192	-0.15	-0.0956	inactive
DYRK3	-0.48	0.854	-0.0429	-0.0618	0.0891	inactive
CDK17	-0.197	0.885	-0.192	-0.00681	-0.0198	inactive
PIK3R1	0.86	1	-0.185	-0.0901	-0.0207	inactive
DAPK2	0.14	0.921	-0.0823	-0.142	-0.17	inactive
ACVR2A	0.661	0.978	-0.143	-0.105	-0.191	inactive
ROR1	0.755	0.989	-0.0775	-0.0711	0.115	inactive
MPP2	0.257	0.934	-0.112	-0.0669	-0.0476	inactive
PNCK	0.86	1	0.00919	-0.0178	0.13	inactive
CAMK4	-0.317	0.872	0.0171	-0.22	-0.0443	inactive
PHKB	0.818	0.995	-0.133	-0.0617	0.0816	inactive
CALM3	-0.685	0.832	0.0143	-0.0365	-0.0867	inactive
SRPK2	0.542	0.965	-0.0995	-0.149	-0.0983	inactive
CHD9	-0.661	0.834	-0.166	-0.111	-0.0553	inactive
MAK	0.86	1	0.0673	-0.00348	0.0386	inactive
PRPS1	0.86	1	-0.00925	-0.0569	0.0105	inactive
GRK4	-0.922	0.806	-0.207	-0.191	-0.0326	inactive
IRAK1	-1.23	0.772	-0.0654	-0.0875	0.00739	inactive
TSSK2	-2.24	0.662	-0.113	-0.107	-0.0612	inactive
PTK7	-1.75	0.715	0.072	0.129	0.028	inactive
RNASEL	0.105	0.918	-0.0914	-0.208	0.0229	inactive
TBX3	0.86	1	0.004	-0.0273	0.0555	inactive
CSNK2A1	0.86	1	-0.164	-0.115	0.111	inactive
KDR	-0.409	0.862	-0.0599	-0.174	-0.0785	inactive
GUCY2EP	-0.532	0.848	-0.0399	-0.0768	-0.00631	inactive
IPMK	0.739	0.987	-0.115	-0.119	-0.116	inactive
PTEN	0.668	0.979	-0.125	-0.169	-0.0437	inactive
TRIB3	-0.259	0.878	-0.0068	0.0532	0.063	inactive
RIOK1	-1.76	0.715	-0.221	-0.199	-0.0987	inactive
MASTL	0.86	1	-0.0551	-0.0864	-0.0882	inactive
PRKAR2A	-0.413	0.861	-0.121	0.0113	0.0263	inactive
AMHR2	-0.0781	0.898	-0.0741	-0.1	0.109	inactive
DNMT3A	-2.14	0.673	-0.141	-0.0266	-0.000349	inactive
NEK10	0.86	1	0.0642	0.08	0.0095	inactive
LRRK2	0.86	1	-0.0961	-0.106	0.159	inactive
ROR2	0.0794	0.915	-0.188	-0.211	-0.00618	inactive
PKN1	0.86	1	-0.0239	-0.166	-0.0829	inactive
FER	0.778	0.991	-0.185	-0.147	-0.238	inactive
PRKAA2	-0.0357	0.902	-0.0105	-0.123	-0.0124	inactive
TGFBR3	0.86	1	-0.112	-0.154	0.0927	inactive
CDKL1	0.533	0.964	0.107	0.0755	0.104	inactive

8 entries from above, reformatted:
PRKAR2A
- viability z-score, no drug: -0.413
- viability, no drug (fraction): 0.861
- synergy score with BYL719: -0.121
- synergy score with cetuximab: 0.0113
- synergy score with trametinib: 0.0263
- activity call: inactive

AMHR2
- viability z-score, no drug: -0.0781
- viability, no drug (fraction): 0.898
- synergy score with BYL719: -0.0741
- synergy score with cetuximab: -0.1
- synergy score with trametinib: 0.109
- activity call: inactive

DNMT3A
- viability z-score, no drug: -2.14
- viability, no drug (fraction): 0.673
- synergy score with BYL719: -0.141
- synergy score with cetuximab: -0.0266
- synergy score with trametinib: -0.000349
- activity call: inactive

NEK10
- viability z-score, no drug: 0.86
- viability, no drug (fraction): 1
- synergy score with BYL719: 0.0642
- synergy score with cetuximab: 0.08
- synergy score with trametinib: 0.0095
- activity call: inactive

LRRK2
- viability z-score, no drug: 0.86
- viability, no drug (fraction): 1
- synergy score with BYL719: -0.0961
- synergy score with cetuximab: -0.106
- synergy score with trametinib: 0.159
- activity call: inactive

ROR2
- viability z-score, no drug: 0.0794
- viability, no drug (fraction): 0.915
- synergy score with BYL719: -0.188
- synergy score with cetuximab: -0.211
- synergy score with trametinib: -0.00618
- activity call: inactive

PKN1
- viability z-score, no drug: 0.86
- viability, no drug (fraction): 1
- synergy score with BYL719: -0.0239
- synergy score with cetuximab: -0.166
- synergy score with trametinib: -0.0829
- activity call: inactive

FER
- viability z-score, no drug: 0.778
- viability, no drug (fraction): 0.991
- synergy score with BYL719: -0.185
- synergy score with cetuximab: -0.147
- synergy score with trametinib: -0.238
- activity call: inactive

The results go on.
Gene	viability z-score, no drug	viability, no drug (fraction)	synergy score with BYL719	synergy score with cetuximab	synergy score with trametinib	activity call
IP6K1	0.86	1	-0.142	-0.15	-0.117	inactive
ERBB2	0.86	1	-0.198	-0.166	-0.0316	inactive
GAK	0.86	1	-0.0341	-0.0494	0.108	inactive
CDC42BPA	-1.1	0.786	-0.00773	0.0411	0.0265	inactive
ELP1	0.466	0.957	-0.169	-0.202	-0.135	inactive
CSK	0.155	0.923	-0.13	-0.23	0.00173	inactive
STK32C	0.614	0.973	-0.0706	-0.064	-0.125	inactive
ERBB3	-0.322	0.871	-0.112	-0.126	0.107	inactive
AURKC	0.0958	0.917	0.00915	-0.0924	-0.0483	inactive
CRIM1	0.738	0.987	-0.0266	0.162	0.236	inactive
SGK3	0.146	0.922	-0.128	-0.0585	-0.0541	inactive
STK40	-0.00278	0.906	-0.0873	-0.112	-0.15	inactive
VRK1	0.287	0.938	-0.0341	-0.0652	-0.17	inactive
MAPK15	-1.06	0.791	-0.198	-0.146	-0.0841	inactive
PDK3	-0.0459	0.901	0.0867	-0.0688	-0.0645	inactive
EIF2AK2	0.0175	0.908	-0.0769	-0.0997	-0.324	inactive
CAMK2B	-0.0646	0.899	0.0781	-0.185	-0.0337	inactive
NUAK2	0.599	0.972	0.0766	-0.0435	0.159	inactive
PRKD1	-0.275	0.876	-0.0461	-0.202	-0.0285	inactive
CILK1	0.256	0.934	-0.0243	-0.0165	-0.115	inactive
KSR1	-2.48	0.636	-0.0804	-0.0204	0.107	inactive
